Measured values reported in the supplement of paper PMC10689618.
Where a name gives a salt, the structure may show the parent alone. This is one part of the list. Single values are uncertain, as repeats are few or missing.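 Labelled rat cortical synaptosomes were engulfed by primary human fetal astrocytes. Engulfment equaled a red/green ratio, corrected for calcein live-cell signal and normalized to the plate median. Compounds were toxic when calcein dropped over 30%, and reduced phagocytosis when below 70% of the median above 5 µM.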

What was measured:
Details in all cases: 24 h
Human fetal astrocytes [1] = experiment: loss of total cells relative to no-compound high-control median (toxicity); higher = more toxic (fewer cells)
Human fetal astrocytes [2] = experiment: as above; remark: listed apart in the source
Human fetal astrocytes [3] = experiment: synaptosome phagocytosis (pHrodo/calcein intensity ratio) relative to plate median of data wells; higher = more phagocytosis
Human fetal astrocytes [4] = experiment: as above; remark: listed apart in the source

Compound	loss of total cells (Human fetal astrocytes [1]; 1.39 µM) [%]	loss of total cells (Human fetal astrocytes [1]; 2.78 µM) [%]	loss of total cells (Human fetal astrocytes [1]; 5.56 µM) [%]	loss of total cells (Human fetal astrocytes [1]; 11.11 µM) [%]	loss of total cells (Human fetal astrocytes [1]; 22.22 µM) [%]	loss of total cells (Human fetal astrocytes [2]; 1.39 µM) [%]	loss of total cells (Human fetal astrocytes [2]; 2.78 µM) [%]	loss of total cells (Human fetal astrocytes [2]; 5.56 µM) [%]	loss of total cells (Human fetal astrocytes [2]; 11.11 µM) [%]	loss of total cells (Human fetal astrocytes [2]; 22.22 µM) [%]	synaptosome phagocytosis (Human fetal astrocytes [3]; 1.39 µM) [%]	synaptosome phagocytosis (Human fetal astrocytes [3]; 2.78 µM) [%]	synaptosome phagocytosis (Human fetal astrocytes [3]; 5.56 µM) [%]	synaptosome phagocytosis (Human fetal astrocytes [3]; 11.11 µM) [%]	synaptosome phagocytosis (Human fetal astrocytes [3]; 22.22 µM) [%]	synaptosome phagocytosis (Human fetal astrocytes [4]; 1.39 µM) [%]	synaptosome phagocytosis (Human fetal astrocytes [4]; 2.78 µM) [%]	synaptosome phagocytosis (Human fetal astrocytes [4]; 5.56 µM) [%]	synaptosome phagocytosis (Human fetal astrocytes [4]; 11.11 µM) [%]	synaptosome phagocytosis (Human fetal astrocytes [4]; 22.22 µM) [%]
CN1CCN(C(=O)OC2c3nccnc3C(=O)N2c2ccc(Cl)cn2)CC1 (stereo not given) [Zopiclone]	-19.6	2.7	10.7	-2.7	-9.9	11.2	3.2	17.4	-13.8	36.4	147	139	106	92.2	121	110	90.2	89.4	80.9	108
CC(CCc1ccccc1)NC(C)C(O)c1ccc(O)cc1 (stereo not given) [Nylidrin hydrochloride]	-1.4	-6.8	8.9	31.4	13.1	-4.1	-11.9	18.3	7	23.8	96.1	91.9	94.8	107	115	96.1	80.4	70.3	63.5	85.8
CS(=N)(=O)CC[C@H](N)C(=O)O (stereo partly drawn) [L-Methionine sulfoximine]	-11.8	5.9	8	1	1.9	1.8	-11.2	-6.5	-24.7	0	69.4	93.1	63	71.5	66	84.2	95.5	104	56.8	123
C[N+](C)(C)CCCCCCCCCC[N+](C)(C)C [Decamethonium dibromide]	-7.9	-7.7	-1.6	-11.2	3.2	-11.2	1.3	-25.2	44.5	-3.3	86.2	73.9	70.9	145	90.2	116	106	119	130	102
COc1ccc2c(c1OC)C(=O)OC2C1c2cc3c(cc2CCN1C)OCO3 (single isomer, unassigned; (+)) [(+)-Hydrastine]	-8.8	-29.1	0	4	2.4	14.5	-12.5	-11.8	4.3	-39.8	109	99.8	84.5	109	83.4	120	98.5	80.6	137	118
Cc1cccc(C)c1NC1=NCCCS1 [Xylazine hydrochloride]	-28.9	-18.3	-10.7	1.9	-33.7	-10	-10.7	8.7	-8.6	-2.3	138	111	103	98.4	128	80	94.4	99.4	75.7	87.6
NCCCNCCSP(=O)(O)O [Amifostine]	-20.9	-14.1	-7.8	-6.7	-4.9	-17.7	-27	-11.2	3	-0.9	93.7	87	101	105	86.5	95.3	91.3	77.4	94.5	105
CN1C(=O)CCS(=O)(=O)C1c1ccc(Cl)cc1 (stereo not given) [Chlormezanone]	1.3	-12.8	0	-22.9	-6.4	-0.4	14.1	8.7	-7.9	-1.5	118	159	135	138	120	81	90.8	122	99.7	113
O=C(O)CC[N+](=O)[O-] [3-Nitropropionic acid]	7.1	6.8	-4.2	-1	22.4	-0.8	15.5	21.2	6.8	17	98.2	110	144	84.6	102	97.4	110	87	122	115
CCCN1C[C@H](CSC)C[C@@H]2c3cccc4[nH]cc(c34)C[C@H]21 [Pergolide methanesulfonate]	-14.6	-3.9	6.2	10.3	-0.8	18.5	-16.7	14.9	-4.3	0.3	120	101	105	43.5	95.3	84.8	84.1	114	103	88.9
COc1cc2c(c(OC)c1OC)-c1ccc(OC)c(=O)cc1[C@@H](NC(C)=O)CC2 [Colchicine]	1.1	2.1	6	1.3	14.7	22.8	25.4	20.9	36	55.6	92.1	113	97.3	104	132	91	126	78.7	72.6	87.7
O=c1[nH]c2ccccc2n1C1CCN(CCCC(c2ccc(F)cc2)c2ccc(F)cc2)CC1 [Pimozide]	-25.1	5.9	-5.2	26.7	29	-39	-0.3	1.5	25	-3.4	59.6	49.3	45.6	24.2	48.7	101	92.6	84.2	52.4	112
CC[C@@]1(O)C(=O)OCc2c1cc1n(c2=O)Cc2cc3ccccc3nc2-1 [(S)-(+)-Camptothecin]	7.1	-20.5	-14	-30.9	2.4	4.1	17.7	5.1	13.5	0.7	76.3	68.9	86.4	64.3	104	92.3	81.8	68.9	74.8	108
CN(C)C(=O)Oc1cccc([N+](C)(C)C)c1 [Neostigmine bromide]	-10	3.2	14.6	18.1	23.4	-34.9	-1.5	1.5	5.5	2.3	99.5	112	94.1	101	128	113	126	140	122	137
COc1ccc(OC)c(C(O)C(C)N)c1 (stereo not given) [Methoxamine hydrochloride]	-11.8	-7.7	17.4	-11.4	4.7	-27.4	-18	-12.9	-10.2	1.1	110	112	95.4	104	105	112	103	89.5	121	121
O=C(O)Cc1cnc[nH]1 [Imidazole-4-acetic acid hydrochloride]	-3.8	-12.8	-4.1	-13.9	-5.6	-1.1	16.2	24.6	1.3	14.4	108	92.4	72.1	92.1	152	117	115	110	106	137
C[C@@H]1O[C@@H](O[C@H]2CC[C@]3(C=O)[C@H]4CC[C@]5(C)[C@@H](C6=CC(=O)OC6)CC[C@]5(O)[C@@H]4CC[C@]3(O)C2)[C@H](O)[C@H](O)[C@H]1O	–	–	–	–	–	–	–	–	–	–	58.3	38.4	41.8	32.8	15	–	–	–	–	–
Cc1nccc2c1[nH]c1ccccc12 [Harmane]	-4.6	-12	9.1	-0.4	2.4	-10.7	-17.7	8.8	16.9	1.5	122	87.1	98.2	107	111	117	151	102	112	106
NCC(CC(=O)O)c1ccc(Cl)cc1 (racemic) [(±)-Baclofen]	0	-3.6	7.8	-17.5	-4.1	-10	10.1	9.3	7	5.1	102	110	120	128	117	118	134	109	128	127
c1ccc2nc(N3CCNCC3)ccc2c1 [Quipazine dimaleate]	-11.5	-17.1	-3.9	-14.2	-18.9	-44.4	-46	-3.7	1	-16.5	86	118	131	82.7	91.5	104	89.9	92.7	115	91.2
CC[C@@H](CO)NC(=O)[C@@H]1C=C2c3cccc4c3c(cn4C)C[C@H]2N(C)C1 [Methysergide maleate]	8.1	-10.4	3.3	-4.8	15.9	-37.9	-23.8	-7.5	37.7	7.8	108	102	92	124	106	98.4	120	88.1	92.4	99.5
C[N+]1(C)[C@@H]2CC(OC(=O)[C@H](CO)c3ccccc3)C[C@H]1[C@@H]1O[C@@H]12 (single isomer, unassigned; (-)) [(-)-Scopolamine methyl nitrate]	-23.3	-29.6	-19.1	-21.1	-36.2	-9.1	-4.6	6.3	-23.4	-5.1	67	77.7	93	79.2	92.2	99.1	100	94.8	129	115
CC(C)(C)NCC(O)c1ccccc1Cl (stereo not given) [Tulobuterol hydrochloride]	-30.7	-21.3	-9	4.2	-22.2	22.7	14.1	21	16.3	16.7	109	109	93.3	90.8	112	73.3	72	101	91.7	77.9
NCCc1c[nH]c2ccccc12 [Tryptamine hydrochloride]	-0.7	-0.3	-17.1	-3.1	4.9	-14.8	4.7	-18.3	15.5	31.9	98.3	66.8	99.1	85.6	76.4	118	150	92.2	113	80.9

Fetched by structure from the list above, two records:
Compound	loss of total cells (Human fetal astrocytes [1]; 1.39 µM) [%]	loss of total cells (Human fetal astrocytes [1]; 2.78 µM) [%]	loss of total cells (Human fetal astrocytes [1]; 5.56 µM) [%]	loss of total cells (Human fetal astrocytes [1]; 11.11 µM) [%]	loss of total cells (Human fetal astrocytes [1]; 22.22 µM) [%]	loss of total cells (Human fetal astrocytes [2]; 1.39 µM) [%]	loss of total cells (Human fetal astrocytes [2]; 2.78 µM) [%]	loss of total cells (Human fetal astrocytes [2]; 5.56 µM) [%]	loss of total cells (Human fetal astrocytes [2]; 11.11 µM) [%]	loss of total cells (Human fetal astrocytes [2]; 22.22 µM) [%]	synaptosome phagocytosis (Human fetal astrocytes [3]; 1.39 µM) [%]	synaptosome phagocytosis (Human fetal astrocytes [3]; 2.78 µM) [%]	synaptosome phagocytosis (Human fetal astrocytes [3]; 5.56 µM) [%]	synaptosome phagocytosis (Human fetal astrocytes [3]; 11.11 µM) [%]	synaptosome phagocytosis (Human fetal astrocytes [3]; 22.22 µM) [%]	synaptosome phagocytosis (Human fetal astrocytes [4]; 1.39 µM) [%]	synaptosome phagocytosis (Human fetal astrocytes [4]; 2.78 µM) [%]	synaptosome phagocytosis (Human fetal astrocytes [4]; 5.56 µM) [%]	synaptosome phagocytosis (Human fetal astrocytes [4]; 11.11 µM) [%]	synaptosome phagocytosis (Human fetal astrocytes [4]; 22.22 µM) [%]
COc1ccc(OC)c(C(O)C(C)N)c1 (stereo not given) [Methoxamine hydrochloride]	-11.8	-7.7	17.4	-11.4	4.7	-27.4	-18	-12.9	-10.2	1.1	110	112	95.4	104	105	112	103	89.5	121	121
NCC(CC(=O)O)c1ccc(Cl)cc1 (racemic) [(±)-Baclofen]	0	-3.6	7.8	-17.5	-4.1	-10	10.1	9.3	7	5.1	102	110	120	128	117	118	134	109	128	127
